Assay results taken from patent publication US7897846B2, “Maize event DP-098140-6 and compositions and methods for the identification and/or detection thereof” (Pioneer Hi-Bred Int'l, Inc., priority 2006, dated 2011).

Assay: Quantitative GLYAT4621 ELISA of leaf and seed, two generations (ng/mg dry weight)
Set-up: species or system Zea mays

B1: GLYAT4621: glyphosate acetyltransferase protein encoded by the glyat4621 gene, expressed in DP-098140-6 maize (protein)
chain: MAIEVKPINAEDTYDLRHRVLRPNQPIEACMFESDLTRSAFHLGGFYGGKLISVASFHQAEHSELQGKKQYQLRGVATLEGYREQKAGSSLVKHAEEILRKRGADMIWCNARTSASGYYRKLGFSEQGEVFDTPPVGPHILMYKR
modifications: GAT4621 probe
notes: glyphosate acetyltransferase protein encoded by the glyat4621 gene, expressed in DP-098140-6 maize
In the case of B1, the “GLYAT4621 protein concentration, Mean” value (98140 Generation 1, leaf) is reported as 34 ng/mg Tissue Dry Weight, the “GLYAT4621 protein concentration, Mean” value (98140 Generation 1, seed (only non-segregating seed samples)) is reported as 9.6 ng/mg Tissue Dry Weight and the “GLYAT4621 protein concentration, Mean” value (98140 Generation 2, leaf) is reported as 34 ng/mg Tissue Dry Weight. For the same molecule, the “GLYAT4621 protein concentration, Mean” value (98140 Generation 2, seed) was 10 ng/mg Tissue Dry Weight, the “GLYAT4621 protein concentration, Mean” value (Control Generation 1, leaf, zero assigned to results below sample LLOQ) was 0 ng/mg Tissue Dry Weight and the “GLYAT4621 protein concentration, Mean” value (Control Generation 1, seed, zero assigned to results below sample LLOQ) was 0 ng/mg Tissue Dry Weight. For the same molecule, the “GLYAT4621 protein concentration, Mean” value (Control Generation 2, leaf, zero assigned to results below sample LLOQ) was 0 ng/mg Tissue Dry Weight and the “GLYAT4621 protein concentration, Mean” value (Control Generation 2, seed, zero assigned to results below sample LLOQ) was 0 ng/mg Tissue Dry Weight.
